± gives the standard deviation of the averaged measurements. The list shows a part of the results, in another mix than the full data.
Compound: Nc1ncnc2c1ncn2[C@@H]1O[C@H](COP(=O)(O)OP(=O)(O)NP(=O)(O)O)[C@@H](O)[C@H]1O [adenylyl imidodiphosphate]
Experiment: NP40-soluble protein abundance relative to vehicle (solubility fold change) (ratio); higher = more soluble protein in presence of AMP-PNP
How it was run: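 Data come from three independent experiments in which Dounce-homogenised Jurkat crude lysate was treated at eight concentrations from 0.1 to 10 mM. Treatment ran 10 min at room temperature and then 3 min at 37 °C, after which 0.8% NP40 and benzonase were added for 60 min at 4 °C before ultracentrifugation. The supernatant underwent TMT labelling and LC-MS/MS, and vsn-normalised intensities were expressed as fold change against the detergent-processed vehicle in each replicate.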

The chains behind the UniProt entries cited, without tags or fusion partners. Where a name states a change or a piece, a line headed by the entry shows the natural chain unless it says otherwise.
UniProt Q9BUT1: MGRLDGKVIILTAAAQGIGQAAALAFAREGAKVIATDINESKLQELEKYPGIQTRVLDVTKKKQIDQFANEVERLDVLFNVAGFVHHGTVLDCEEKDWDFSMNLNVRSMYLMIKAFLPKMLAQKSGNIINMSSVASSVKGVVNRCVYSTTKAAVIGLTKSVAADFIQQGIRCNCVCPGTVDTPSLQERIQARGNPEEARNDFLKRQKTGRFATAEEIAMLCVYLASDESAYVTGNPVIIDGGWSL
UniProt Q9BUV8: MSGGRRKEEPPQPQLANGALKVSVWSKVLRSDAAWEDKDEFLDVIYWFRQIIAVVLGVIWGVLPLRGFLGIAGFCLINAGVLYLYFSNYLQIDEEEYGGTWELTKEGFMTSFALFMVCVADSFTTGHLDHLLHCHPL
UniProt Q96ST3: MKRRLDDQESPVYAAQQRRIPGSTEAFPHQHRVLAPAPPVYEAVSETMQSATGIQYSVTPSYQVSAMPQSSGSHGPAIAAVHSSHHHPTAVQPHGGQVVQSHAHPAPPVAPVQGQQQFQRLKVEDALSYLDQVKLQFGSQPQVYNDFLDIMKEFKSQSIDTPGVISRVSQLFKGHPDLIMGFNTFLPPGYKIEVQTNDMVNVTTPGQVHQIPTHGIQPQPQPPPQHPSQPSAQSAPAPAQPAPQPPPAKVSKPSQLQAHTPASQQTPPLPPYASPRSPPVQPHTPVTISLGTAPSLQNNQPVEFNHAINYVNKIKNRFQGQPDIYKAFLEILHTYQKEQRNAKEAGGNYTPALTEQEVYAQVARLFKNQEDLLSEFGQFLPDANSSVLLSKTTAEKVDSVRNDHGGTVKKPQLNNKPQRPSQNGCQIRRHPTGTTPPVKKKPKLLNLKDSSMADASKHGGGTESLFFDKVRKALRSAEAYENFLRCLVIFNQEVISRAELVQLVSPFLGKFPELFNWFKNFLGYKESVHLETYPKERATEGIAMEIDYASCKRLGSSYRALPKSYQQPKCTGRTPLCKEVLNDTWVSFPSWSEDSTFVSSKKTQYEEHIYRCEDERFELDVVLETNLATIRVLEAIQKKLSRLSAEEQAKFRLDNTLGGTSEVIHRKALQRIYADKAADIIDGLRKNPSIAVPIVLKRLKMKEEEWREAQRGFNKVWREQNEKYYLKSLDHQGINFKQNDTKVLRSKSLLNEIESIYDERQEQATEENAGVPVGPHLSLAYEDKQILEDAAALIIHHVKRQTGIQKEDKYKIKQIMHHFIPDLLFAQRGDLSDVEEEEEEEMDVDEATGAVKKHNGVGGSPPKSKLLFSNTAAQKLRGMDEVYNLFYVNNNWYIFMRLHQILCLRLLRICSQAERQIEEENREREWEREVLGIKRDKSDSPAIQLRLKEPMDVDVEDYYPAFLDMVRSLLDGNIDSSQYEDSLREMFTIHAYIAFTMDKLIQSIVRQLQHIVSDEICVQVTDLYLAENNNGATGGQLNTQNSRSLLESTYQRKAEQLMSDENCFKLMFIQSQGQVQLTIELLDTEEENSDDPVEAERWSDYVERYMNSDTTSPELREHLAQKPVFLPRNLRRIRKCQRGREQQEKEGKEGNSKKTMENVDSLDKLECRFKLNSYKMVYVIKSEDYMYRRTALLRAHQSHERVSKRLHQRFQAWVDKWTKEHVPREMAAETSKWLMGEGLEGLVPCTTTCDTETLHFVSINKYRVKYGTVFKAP
UniProt Q9BT23: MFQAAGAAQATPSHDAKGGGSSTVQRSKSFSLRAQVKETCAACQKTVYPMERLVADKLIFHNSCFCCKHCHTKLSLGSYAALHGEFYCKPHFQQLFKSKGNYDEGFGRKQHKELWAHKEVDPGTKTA
UniProt Q9BQI0: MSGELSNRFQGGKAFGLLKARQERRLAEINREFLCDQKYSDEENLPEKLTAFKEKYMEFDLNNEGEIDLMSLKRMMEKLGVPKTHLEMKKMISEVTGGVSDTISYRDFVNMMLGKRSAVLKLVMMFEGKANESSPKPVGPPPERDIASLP
UniProt Q99504: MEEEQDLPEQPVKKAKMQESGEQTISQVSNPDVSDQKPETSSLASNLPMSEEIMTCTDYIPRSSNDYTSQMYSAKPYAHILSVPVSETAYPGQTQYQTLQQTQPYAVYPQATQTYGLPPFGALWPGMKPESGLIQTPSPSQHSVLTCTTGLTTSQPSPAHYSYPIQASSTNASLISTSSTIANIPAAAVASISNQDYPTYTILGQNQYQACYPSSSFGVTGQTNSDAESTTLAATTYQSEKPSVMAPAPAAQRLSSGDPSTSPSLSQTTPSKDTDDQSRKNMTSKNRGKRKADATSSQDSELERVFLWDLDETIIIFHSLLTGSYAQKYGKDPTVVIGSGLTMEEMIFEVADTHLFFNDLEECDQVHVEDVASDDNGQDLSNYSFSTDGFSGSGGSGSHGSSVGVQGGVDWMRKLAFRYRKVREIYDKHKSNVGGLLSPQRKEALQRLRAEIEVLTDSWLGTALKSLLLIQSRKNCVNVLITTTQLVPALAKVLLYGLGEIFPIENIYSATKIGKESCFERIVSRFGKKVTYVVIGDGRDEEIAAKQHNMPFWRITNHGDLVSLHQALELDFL
UniProt Q99797: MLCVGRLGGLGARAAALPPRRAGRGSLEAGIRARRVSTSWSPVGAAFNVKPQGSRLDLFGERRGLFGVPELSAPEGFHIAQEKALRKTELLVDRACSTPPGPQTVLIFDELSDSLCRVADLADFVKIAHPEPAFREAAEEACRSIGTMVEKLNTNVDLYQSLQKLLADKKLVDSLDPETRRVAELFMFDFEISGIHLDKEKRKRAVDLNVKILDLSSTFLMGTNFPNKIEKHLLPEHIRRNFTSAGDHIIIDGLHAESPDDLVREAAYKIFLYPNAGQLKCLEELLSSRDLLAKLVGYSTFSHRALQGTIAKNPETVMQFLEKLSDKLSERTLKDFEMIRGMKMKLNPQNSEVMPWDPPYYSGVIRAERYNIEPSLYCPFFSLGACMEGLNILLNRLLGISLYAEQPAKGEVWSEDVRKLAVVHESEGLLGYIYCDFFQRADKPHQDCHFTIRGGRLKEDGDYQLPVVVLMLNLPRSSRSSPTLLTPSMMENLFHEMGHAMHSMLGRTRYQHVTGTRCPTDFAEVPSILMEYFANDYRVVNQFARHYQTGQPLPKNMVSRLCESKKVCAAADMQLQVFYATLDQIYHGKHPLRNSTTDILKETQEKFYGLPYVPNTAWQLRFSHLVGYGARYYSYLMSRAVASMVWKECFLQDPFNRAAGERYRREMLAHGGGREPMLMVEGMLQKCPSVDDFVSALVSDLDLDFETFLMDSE
UniProt Q9BXW6, whole entry: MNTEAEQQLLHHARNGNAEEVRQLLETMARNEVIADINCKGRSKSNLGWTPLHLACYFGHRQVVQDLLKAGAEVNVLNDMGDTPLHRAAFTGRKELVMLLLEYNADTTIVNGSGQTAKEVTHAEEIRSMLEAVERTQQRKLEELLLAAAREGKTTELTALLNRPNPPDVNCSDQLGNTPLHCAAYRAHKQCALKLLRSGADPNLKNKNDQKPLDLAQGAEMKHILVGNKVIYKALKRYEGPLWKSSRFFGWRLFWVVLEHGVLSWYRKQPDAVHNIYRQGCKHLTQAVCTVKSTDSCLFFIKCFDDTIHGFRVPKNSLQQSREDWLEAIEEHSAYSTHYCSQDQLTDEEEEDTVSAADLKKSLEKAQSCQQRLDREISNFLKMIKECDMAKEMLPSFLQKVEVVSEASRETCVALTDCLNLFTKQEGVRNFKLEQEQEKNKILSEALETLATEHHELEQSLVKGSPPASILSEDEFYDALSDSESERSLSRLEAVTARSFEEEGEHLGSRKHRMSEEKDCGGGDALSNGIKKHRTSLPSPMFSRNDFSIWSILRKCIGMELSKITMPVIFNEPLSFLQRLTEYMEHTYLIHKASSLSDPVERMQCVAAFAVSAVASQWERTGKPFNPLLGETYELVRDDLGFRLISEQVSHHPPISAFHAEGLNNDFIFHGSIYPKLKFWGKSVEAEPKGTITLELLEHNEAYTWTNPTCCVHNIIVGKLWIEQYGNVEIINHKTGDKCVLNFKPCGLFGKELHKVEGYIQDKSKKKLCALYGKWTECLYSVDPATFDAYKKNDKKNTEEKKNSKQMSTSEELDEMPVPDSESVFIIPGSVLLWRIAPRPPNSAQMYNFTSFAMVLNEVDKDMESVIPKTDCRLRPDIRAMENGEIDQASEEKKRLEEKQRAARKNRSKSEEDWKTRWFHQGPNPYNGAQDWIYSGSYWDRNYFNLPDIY
UniProt Q99757: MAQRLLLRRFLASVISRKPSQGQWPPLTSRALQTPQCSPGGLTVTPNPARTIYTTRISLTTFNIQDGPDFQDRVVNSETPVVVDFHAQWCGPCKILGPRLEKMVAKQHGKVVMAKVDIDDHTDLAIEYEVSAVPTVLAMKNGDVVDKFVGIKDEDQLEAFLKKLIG
UniProt Q96RR4, whole entry, looked up: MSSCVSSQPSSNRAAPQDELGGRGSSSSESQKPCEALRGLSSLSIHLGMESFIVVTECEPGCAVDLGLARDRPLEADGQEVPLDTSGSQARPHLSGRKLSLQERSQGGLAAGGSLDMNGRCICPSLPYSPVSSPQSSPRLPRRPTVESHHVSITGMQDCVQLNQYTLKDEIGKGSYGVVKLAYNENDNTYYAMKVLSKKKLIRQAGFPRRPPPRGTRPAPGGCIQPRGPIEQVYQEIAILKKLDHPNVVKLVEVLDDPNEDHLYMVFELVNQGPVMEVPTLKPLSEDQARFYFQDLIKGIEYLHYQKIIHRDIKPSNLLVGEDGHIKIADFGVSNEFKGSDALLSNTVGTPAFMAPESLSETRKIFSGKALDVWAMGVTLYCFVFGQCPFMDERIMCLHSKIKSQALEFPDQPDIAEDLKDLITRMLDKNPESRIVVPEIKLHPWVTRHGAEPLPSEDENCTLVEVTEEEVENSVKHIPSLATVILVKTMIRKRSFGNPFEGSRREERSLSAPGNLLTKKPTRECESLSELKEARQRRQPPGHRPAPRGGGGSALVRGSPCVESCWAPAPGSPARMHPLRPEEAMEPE
UniProt Q96QZ7: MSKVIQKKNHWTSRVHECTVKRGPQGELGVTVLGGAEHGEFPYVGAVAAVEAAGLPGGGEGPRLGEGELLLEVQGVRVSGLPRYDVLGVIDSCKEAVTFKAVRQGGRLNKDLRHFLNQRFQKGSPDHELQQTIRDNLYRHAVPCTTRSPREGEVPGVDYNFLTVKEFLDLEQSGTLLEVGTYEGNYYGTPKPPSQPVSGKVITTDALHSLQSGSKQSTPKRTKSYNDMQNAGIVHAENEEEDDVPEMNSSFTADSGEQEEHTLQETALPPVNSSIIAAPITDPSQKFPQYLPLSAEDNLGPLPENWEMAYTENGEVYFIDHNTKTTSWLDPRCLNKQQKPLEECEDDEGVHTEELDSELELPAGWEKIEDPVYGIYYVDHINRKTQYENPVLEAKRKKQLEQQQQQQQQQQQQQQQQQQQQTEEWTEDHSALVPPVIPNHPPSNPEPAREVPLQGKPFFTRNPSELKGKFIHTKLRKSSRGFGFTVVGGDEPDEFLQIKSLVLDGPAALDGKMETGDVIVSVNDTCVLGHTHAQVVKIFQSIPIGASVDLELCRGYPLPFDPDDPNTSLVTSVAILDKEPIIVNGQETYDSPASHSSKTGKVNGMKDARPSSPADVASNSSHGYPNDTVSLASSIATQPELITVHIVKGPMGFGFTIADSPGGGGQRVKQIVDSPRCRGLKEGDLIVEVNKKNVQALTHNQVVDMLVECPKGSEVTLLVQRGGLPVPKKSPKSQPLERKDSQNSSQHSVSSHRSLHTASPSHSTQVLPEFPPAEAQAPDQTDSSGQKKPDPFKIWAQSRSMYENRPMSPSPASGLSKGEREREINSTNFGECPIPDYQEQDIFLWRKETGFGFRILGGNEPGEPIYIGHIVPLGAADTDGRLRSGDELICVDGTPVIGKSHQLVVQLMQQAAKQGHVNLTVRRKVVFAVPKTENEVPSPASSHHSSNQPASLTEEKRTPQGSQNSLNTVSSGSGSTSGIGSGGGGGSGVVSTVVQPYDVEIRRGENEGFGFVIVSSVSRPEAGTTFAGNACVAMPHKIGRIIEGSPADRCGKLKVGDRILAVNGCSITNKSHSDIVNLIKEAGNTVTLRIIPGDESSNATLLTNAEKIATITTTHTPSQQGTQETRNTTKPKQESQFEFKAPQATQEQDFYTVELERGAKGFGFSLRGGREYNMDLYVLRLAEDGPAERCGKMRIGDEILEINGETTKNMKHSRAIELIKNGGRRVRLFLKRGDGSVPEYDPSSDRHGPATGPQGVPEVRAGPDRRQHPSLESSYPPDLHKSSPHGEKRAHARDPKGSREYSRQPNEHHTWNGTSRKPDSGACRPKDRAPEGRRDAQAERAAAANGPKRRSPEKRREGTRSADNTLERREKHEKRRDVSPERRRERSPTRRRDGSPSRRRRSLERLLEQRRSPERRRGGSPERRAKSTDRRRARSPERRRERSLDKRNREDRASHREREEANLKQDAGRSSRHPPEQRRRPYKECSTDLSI

Target	NP40-soluble protein abundance (concentration: 1mM)	NP40-soluble protein abundance (concentration: 2mM)	NP40-soluble protein abundance (concentration: 4mM)	NP40-soluble protein abundance (concentration: 6mM)	NP40-soluble protein abundance (concentration: 8mM)	NP40-soluble protein abundance (concentration: 10mM)
BDH2 (UniProt Q9BUT1)	1.02 ± 0.046	1.05 ± 0.12	0.999 ± 0.073	1.04 ± 0.048	1.03 ± 0.052	1.02 ± 0.042
UniProt Q9BUV8 and related entries	1.01 ± 0.052	0.991 ± 0.024	1.06 ± 0.039	1.06 ± 0.023	1.12 ± 0.026	1.09 ± 0.016
SIN3A (UniProt Q96ST3)	0.95 ± 0.02	0.941 ± 0.049	0.958 ± 0.037	0.947 ± 0.025	0.975 ± 0.043	0.979 ± 0.063
LIMD2 (UniProt Q9BT23)	1.12 ± 0.048	1.12 ± 0.055	1.09 ± 0.092	1.111 ± 0.0068	1.12 ± 0.061	1.15 ± 0.092
UniProt Q9BQI0 and related entries	0.991 ± 0.028	0.997 ± 0.027	0.98 ± 0.056	0.962 ± 0.034	0.971 ± 0.046	0.986 ± 0.041
UniProt Q99504 and related entries	0.995 ± 0.044	1.02 ± 0.04	0.99 ± 0.035	1.02 ± 0.012	1.02 ± 0.013	1.02 ± 0.031
MIPEP (UniProt Q99797)	0.995 ± 0.028	0.928 ± 0.061	0.998 ± 0.021	0.9715 ± 0.0032	0.978 ± 0.017	0.9411 ± 0.0032
OSBPL1A (UniProt Q9BXW6)	1.04 ± 0.028	1.05 ± 0.058	1.06 ± 0.047	1.018 ± 0.0099	1 ± 0.023	1.02 ± 0.038
TXN2 (UniProt Q99757)	0.99 ± 0.065	1.032 ± 0.0055	0.976 ± 0.081	0.986 ± 0.022	0.938 ± 0.013	0.945 ± 0.038
UniProt Q96RR4 and related entries	1.01 ± 0.016	1.05 ± 0.024	0.999 ± 0.046	0.939 ± 0.025	0.941 ± 0.012	0.982 ± 0.017
UniProt Q9BYD6 and related entries	1.01 ± 0.064	1.03 ± 0.04	1.03 ± 0.099	1.06 ± 0.07	1.06 ± 0.071	1.13 ± 0.12
UniProt Q9BX66-10|Q9BX66-12|Q9BX66-4|Q9BX66-5|Q9BX66-6|Q9BX66-8|Q9BX66-9	0.979 ± 0.024	1.02 ± 0.022	1.03 ± 0.014	1.019 ± 0.0014	0.993 ± 0.0014	1.0151 ± 0.00071
UniProt Q96QZ7 and related entries	1.01 ± 0.03	1.07 ± 0.042	1.01 ± 0.027	0.9984 ± 0.0012	1.01 ± 0.045	1.03 ± 0.028
UniProt Q9BYT3 and related entries	1.01 ± 0.014	1.04 ± 0.032	0.991 ± 0.049	0.989 ± 0.047	0.992 ± 0.023	0.9938 ± 0.0066
TM9SF2 (UniProt Q99805)	0.947 ± 0.11	0.882 ± 0.045	0.94 ± 0.046	0.925 ± 0.094	0.98 ± 0.053	0.873 ± 0.076

Two entries from above, as comma-separated lines:
Target,NP40-soluble protein abundance (concentration: 1mM),NP40-soluble protein abundance (concentration: 2mM),NP40-soluble protein abundance (concentration: 4mM),NP40-soluble protein abundance (concentration: 6mM),NP40-soluble protein abundance (concentration: 8mM),NP40-soluble protein abundance (concentration: 10mM)
OSBPL1A (UniProt Q9BXW6),1.04 ± 0.028,1.05 ± 0.058,1.06 ± 0.047,1.018 ± 0.0099,1 ± 0.023,1.02 ± 0.038
UniProt Q9BX66-10|Q9BX66-12|Q9BX66-4|Q9BX66-5|Q9BX66-6|Q9BX66-8|Q9BX66-9,0.979 ± 0.024,1.02 ± 0.022,1.03 ± 0.014,1.019 ± 0.0014,0.993 ± 0.0014,1.0151 ± 0.00071
